PubChem BioAssay AID588497 (NMMLSC, 2011)
The campaign covered roughly 360,000 compounds. About 780 (0.22%) were called active. This list was built around the results that the source calls inconclusive (neither active nor inactive); the mix of calls is not that of the screen. Cut-off read from the data, not from the text of the source: active = inhibition above about 35% (passing the limit was not always enough); inconclusive = no clear call, values can overlap the other calls.

system: Botulinum neurotoxin type F light chain protease (Clostridium botulinum); assay: BoNT/F light chain protease inhibitors, primary screen, biochemical, flow cytometry, MLPCN library (AID 588497); conditions: Multiplex microsphere protease cleavage assay, at 10 µM, stronger effect = higher value; note: plate controls were buffer without enzyme for full effect and enzyme alone for no effect

SMILES	inhibition
COc1ccc(N2CCN(CNC(=O)c3ccccc3)CC2)cc1	inconclusive: 21.4%
Cc1ccc(NC2CC(C)NC(=S)N2)cc1 (stereo not given)	inconclusive: 19.2%
O=C(Nc1ccccc1)c1ccc(NCCc2ccccc2)c([N+](=O)[O-])c1	inactive: -4.1%
COCCN1C=C(C(=O)OC)C(c2ccc3c(c2)OCO3)C(C(=O)OC)=C1	inactive: -9.2%
CCOC(=O)Cc1csc(NC(=O)CN2C(=O)c3ccccc3C2=O)n1	inconclusive: -49%
Nc1ccccc1CCc1ccccc1N	inactive: -1%
CCCCc1ccc(NC(=O)C2CCCC2)cc1	inconclusive: -75.1%
CCOC(=O)c1nc(NNC(=O)c2ccc([N+](=O)[O-])cc2)sc1C	inconclusive: 1.3%
O=C(NCCCN1CCCC1=O)c1cc(COc2ccc(F)cc2F)on1	inactive: -6.6%
CC(O)Cn1c(N2CCCC2)nc2c1c(=O)n(C)c(=O)n2C (stereo not given)	inconclusive: 47.4%
CCOc1ccc(C(=O)NC2CCN(S(=O)(=O)c3ccccc3)CC2)cc1	active: 37.5%
COc1ccc(N2C(=O)NC3CC2(C)Oc2ccccc23)cc1OC (stereo not given)	inconclusive: -21.2%
COc1ccc(S(=O)(=O)NCCN2CCOCC2)c(C)c1C	inconclusive: -1.1%
Cc1cc(N/N=C/c2ccncc2)c([N+](=O)[O-])cc1[N+](=O)[O-]	inconclusive: -112%
Cc1cc(C)n(CC(O)COc2ccccc2Br)n1 (stereo not given)	inconclusive: -6.2%
COc1ccc(/C=C/C(=O)NC(=S)NNC(=O)c2cc(OC)c(OC)c(OC)c2)cc1	inconclusive: -86.5%
O=C(CSC(=S)N1CCCC1)NCC(=O)Nc1ccc(F)c(F)c1	inconclusive: -4.9%
CCCCNC(=O)NCCN1CCOCC1	inconclusive: 28.7%
CCOC(=O)c1sc(NC(=O)CN2CCN(c3ccccc3)CC2)nc1C	inconclusive: -3.2%
O=C(O)CC(NC(=O)Cc1ccccc1)c1ccccc1 (stereo not given)	inconclusive: -5.8%

In the list so far, these have fluorine:
SMILES	inhibition
O=C(NCCCN1CCCC1=O)c1cc(COc2ccc(F)cc2F)on1	inactive: -6.6%
O=C(CSC(=S)N1CCCC1)NCC(=O)Nc1ccc(F)c(F)c1	inconclusive: -4.9%

The list continues.

SMILES	inhibition
Cc1ccccc1N1C(=O)c2cccc3cccc(c23)C1=O	inconclusive: 6.3%
O=C(Nc1ccc(N2CCOCC2)cc1N1CCOCC1)c1cccc([N+](=O)[O-])c1	inconclusive: -10.9%
CCCCCc1n[nH]c2c1CCCC2	inconclusive: 92.9%
COc1cc(OC)c(C2=NOC(C(=O)Nc3ccc4c(c3)OCO4)C2)cc1Cl (stereo not given)	inactive: -3.7%
CC1CC(=O)N(c2ccc(NCc3ccc(Cl)cc3)c([N+](=O)[O-])c2)C1=O (stereo not given)	inactive: -2.4%
O=[N+]([O-])c1nn(-c2ccc3c(c2)OCCO3)n(O)c1=NC1CCCCCC1	inactive: -40.4%
Cc1ccc(NC(=O)C(C)OC(=O)c2n[nH]c3ccccc23)cc1 (stereo not given)	inconclusive: -7.7%
C/C(=N\NC(N)=O)c1ccccc1	inactive: -4.4%
CCC(=O)NC(c1ccc(Cl)cc1Cl)c1ccc2cccnc2c1O (stereo not given)	inconclusive: 1.2%
CCCSc1nnc(CN2CCOCC2)n1C	inconclusive: 23.5%
Nc1c(NCc2ccccc2)c(=O)c1=O	inconclusive: -32.4%
COc1ccc(NC(=O)C(=O)N/N=C(\C)CC(=O)Nc2ccccn2)c(OC)c1	inconclusive: -49.6%
CC(C)(C)NC(=O)CN(C(=O)CCC(=O)Nc1nccs1)c1ccc(F)c(Cl)c1	inactive: -5.2%
CC(C)c1ccc(S(=O)(=O)N2CCC(C(=O)N3CCN(c4cccc(Cl)c4)CC3)CC2)cc1	inactive: -3.6%
CCc1c(C)nc2c(-c3ccccc3)c[nH]n2c1=O	inactive: -23.3%
Cc1ccc(/C=C2/SC(=S)N(c3ccc(S(=O)(=O)Nc4nccs4)cc3)C2=O)cc1	inconclusive: -55.4%
CCCCN(C(=O)C(C)Oc1cccc(Cl)c1)c1c(N)n(CCC)c(=O)[nH]c1=O (stereo not given)	inconclusive: -6%
COc1ccc(NC(=O)c2cccs2)cn1	inconclusive: -3.1%
CCN(CCn1cccn1)C(=O)CC1C(=O)NCCN1CC1CCCCC1 (stereo not given)	inactive: -4.6%
C[C@H]1CN([C@@H](C)CO)S(=O)(=O)c2ccc(C#Cc3cccnc3)cc2O[C@@H]1CN(C)C(=O)Nc1ccc2c(c1)OCO2	inactive: -17.7%

SMILES	inhibition
O=C(c1cnccn1)N(c1ccccc1)C1(C(=O)NC2CCCC2)CCCCC1	inconclusive: 7.4%
Cc1cc(O)cc(=O)n1CCc1ccccc1	inconclusive: 18.1%
COc1ccc(C(=O)CC(=O)c2ccccc2O)cc1	inconclusive: -19%
CCOC(=O)c1ccc(NC(=O)c2ccnn2C)cc1	inconclusive: -30.7%
Cc1cccc(N2CCN(C(=O)c3cn(C)c(=O)c4c3c3ccccc3n4C)CC2)c1C	inactive: 0.1%
Cc1nc(Nc2cccc(C(F)(F)F)c2)nc2c1C(=O)CC(C)C2 (stereo not given)	inconclusive: 6.5%
O=C(CSc1ccc(Cl)cc1)Nc1ccc(C2SCCS2)cc1	inconclusive: 129%
COc1ccc(C(=O)OCc2csc(C)n2)c(O)c1	inactive: 2.3%
Cn1c(-c2ccccc2)cnc1NCc1cccc([N+](=O)[O-])c1	inconclusive: -47.9%
CC1(O)c2ccccc2C(=O)N1Cc1ccccc1 (stereo not given)	inactive: -2.1%
COc1ccccc1C(=O)NNC(=O)c1ccc2ccccc2c1	inconclusive: 26.2%
COCc1cc(=O)[nH]c(SCCS(=O)(=O)c2ccc(Cl)cc2Cl)n1	inconclusive: -62.2%
O=[N+]([O-])c1ccccc1OCCN1CCCC1	inconclusive: -4.1%
Cc1cc(C)nc(CCNC(=O)CC2C(=O)NCCN2Cc2ccccc2)n1 (stereo not given)	inactive: 1.2%
Nc1c(-c2nn[nH]n2)cnn1-c1cc(Cl)cc(Cl)c1	inconclusive: -60.7%
Cc1ccc(OCCC(=O)Nc2ccccc2C(=O)NC2CC2)cc1	inactive: 7.9%
CC(C)(C)C(=O)C(C(c1ccccc1)N1CCOCC1)N1CCOCC1 (stereo not given)	inactive: 3.2%
Cc1ccccc1Nc1nc(N)nc(COC(=O)c2cccn2C)n1	inactive: 3.8%
COc1ccc2c(c1)CC1(CN2C)C(=O)NC(=O)N(CCc2ccccc2)C1=O (stereo not given)	inactive: -11.6%
S=c1[nH]nc(-c2cc(-c3ccccc3)n[nH]2)n1/N=C/c1cccc(Cl)c1	inconclusive: 55.5%

A stretch from the list above:
SMILES	inhibition
Cc1ccc(OCCC(=O)Nc2ccccc2C(=O)NC2CC2)cc1	inactive: 7.9%
CC(C)(C)C(=O)C(C(c1ccccc1)N1CCOCC1)N1CCOCC1 (stereo not given)	inactive: 3.2%
